In the supplement of paper PMC11732987, “Enantioselective OTUD7B fragment discovery through chemoproteomics screening and high-throughput optimisation” (Communications Chemistry, 2025):
The list shows a part of the results. The data scatter; read single values as rough.

Protein sequences, listed by entry. Tags and fused reporters are not part of them. Lines headed by an entry give the natural chain unless they say otherwise; changes in a name come on top.
UniProt Q9NP81: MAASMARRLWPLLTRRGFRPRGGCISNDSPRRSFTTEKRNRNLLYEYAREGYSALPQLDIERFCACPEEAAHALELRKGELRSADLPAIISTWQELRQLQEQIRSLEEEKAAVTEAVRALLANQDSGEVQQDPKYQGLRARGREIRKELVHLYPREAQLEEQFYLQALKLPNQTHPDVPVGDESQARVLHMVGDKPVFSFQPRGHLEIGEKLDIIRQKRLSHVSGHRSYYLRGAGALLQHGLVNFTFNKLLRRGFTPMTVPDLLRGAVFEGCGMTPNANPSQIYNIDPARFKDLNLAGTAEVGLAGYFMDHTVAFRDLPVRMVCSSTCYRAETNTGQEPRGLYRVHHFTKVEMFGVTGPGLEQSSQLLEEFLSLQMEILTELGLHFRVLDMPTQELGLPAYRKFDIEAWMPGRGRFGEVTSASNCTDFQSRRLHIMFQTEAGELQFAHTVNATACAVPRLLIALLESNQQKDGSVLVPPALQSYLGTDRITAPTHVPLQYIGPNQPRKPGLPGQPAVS

target: SARS2 C425 (UniProt Q9NP81); experiment: log2 mean competition ratio of IA-DTB cysteine labelling (DMSO/compound) (log2 ratio); higher = stronger cysteine engagement by compound; conditions: 50 µM; treatment time: 4 h; cell line lysate: HEK293T
Description: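 IA-DTB competitive cysteine chemoproteomics in HEK293T RIPA lysate. Lysates were treated with compound 29 or 30 at 50 or 200 µM for 4 h, then IA-DTB (500 µM, 1 h), trypsin-digested, NeutrAvidin-enriched and analysed by diaPASEF. Competition ratio = intensity DMSO / intensity compound (n=4 treated, n=64 DMSO); binding: mean log2 CR ≥ 1 and p ≤ 0.05 plus QC filters. Target is the cysteine site.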

SMILES | log2 mean competition ratio
O=C(CCl)N[C@H]1CCCc2ccccc21 | 0.0812
O=C(CCl)N[C@@H]1CCCc2ccccc21 | -0.145

same assay, conditions: 200 µM; treatment time: 4 h; cell line lysate: HEK293T

SMILES | log2 mean competition ratio
O=C(CCl)N[C@H]1CCCc2ccccc21 | -0.184
O=C(CCl)N[C@@H]1CCCc2ccccc21 | 0.0494
